One compound from article PMC9731497, “Identification of potent anti-Cryptosporidium new drug leads by screening traditional Chinese medicines” (PLOS Neglected Tropical Diseases, 2022) can be followed below.

Structures can show the parent of a compound that is named as a salt.

This series in a line: Host cell viability assay (Cell-Titer Glo). The conditions noted are these: human.

For the compound `CN1[C@@H]2CC[C@H]1C[C@@H](OC(=O)C(CO)c1ccccc1)C2` (stereo partly shown) [Atropine sulfate, reference compound], the midpoint of cytotoxicity, the CC50 at 48 h, lay at 17.7 µM.

Usually CC50 stands for the concentration giving 50% cytotoxicity. A higher CC50 goes with better tolerance by the cells.
